Results taken from publication PMC6606597.
Read-outs that look alike come from different tables or passages of the source. No constants are given. Whether binding was seen depends on the method and setting. Binding seen in cells or lysates may run through a third protein. A yes stands for co-enrichment or nearness to the bait. Other partners may have been found. For some assays here: A no says only that the protein was not detected with the bait. For some assays here: Where a sequence is shown, tags or fusion partners need not be part of it.

Chains of the proteins cited; added tags and fusions are not shown.
UniProt Q9WVL2: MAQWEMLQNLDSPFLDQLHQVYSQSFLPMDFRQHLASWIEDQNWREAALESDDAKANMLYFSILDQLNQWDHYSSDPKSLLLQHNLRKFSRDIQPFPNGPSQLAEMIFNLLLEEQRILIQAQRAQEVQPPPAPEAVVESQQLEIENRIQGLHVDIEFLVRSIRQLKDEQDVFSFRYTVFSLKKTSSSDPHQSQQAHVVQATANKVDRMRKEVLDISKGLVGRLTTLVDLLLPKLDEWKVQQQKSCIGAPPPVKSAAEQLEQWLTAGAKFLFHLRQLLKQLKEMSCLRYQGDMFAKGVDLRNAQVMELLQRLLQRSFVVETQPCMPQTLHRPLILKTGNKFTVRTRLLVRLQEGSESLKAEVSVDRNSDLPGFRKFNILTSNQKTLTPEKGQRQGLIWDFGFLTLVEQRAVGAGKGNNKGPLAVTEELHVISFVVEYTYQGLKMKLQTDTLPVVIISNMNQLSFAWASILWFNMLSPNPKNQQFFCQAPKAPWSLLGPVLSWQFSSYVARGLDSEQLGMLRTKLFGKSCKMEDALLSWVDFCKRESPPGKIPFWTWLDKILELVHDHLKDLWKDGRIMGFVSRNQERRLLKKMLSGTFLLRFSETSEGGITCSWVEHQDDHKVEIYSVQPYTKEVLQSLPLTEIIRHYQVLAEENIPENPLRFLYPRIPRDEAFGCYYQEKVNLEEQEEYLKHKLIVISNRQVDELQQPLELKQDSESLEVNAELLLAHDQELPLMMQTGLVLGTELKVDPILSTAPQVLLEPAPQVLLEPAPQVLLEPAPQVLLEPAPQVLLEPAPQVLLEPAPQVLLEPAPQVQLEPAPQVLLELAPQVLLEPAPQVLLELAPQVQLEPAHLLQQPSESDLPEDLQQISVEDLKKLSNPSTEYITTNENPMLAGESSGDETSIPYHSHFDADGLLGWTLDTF
UniProt P42227: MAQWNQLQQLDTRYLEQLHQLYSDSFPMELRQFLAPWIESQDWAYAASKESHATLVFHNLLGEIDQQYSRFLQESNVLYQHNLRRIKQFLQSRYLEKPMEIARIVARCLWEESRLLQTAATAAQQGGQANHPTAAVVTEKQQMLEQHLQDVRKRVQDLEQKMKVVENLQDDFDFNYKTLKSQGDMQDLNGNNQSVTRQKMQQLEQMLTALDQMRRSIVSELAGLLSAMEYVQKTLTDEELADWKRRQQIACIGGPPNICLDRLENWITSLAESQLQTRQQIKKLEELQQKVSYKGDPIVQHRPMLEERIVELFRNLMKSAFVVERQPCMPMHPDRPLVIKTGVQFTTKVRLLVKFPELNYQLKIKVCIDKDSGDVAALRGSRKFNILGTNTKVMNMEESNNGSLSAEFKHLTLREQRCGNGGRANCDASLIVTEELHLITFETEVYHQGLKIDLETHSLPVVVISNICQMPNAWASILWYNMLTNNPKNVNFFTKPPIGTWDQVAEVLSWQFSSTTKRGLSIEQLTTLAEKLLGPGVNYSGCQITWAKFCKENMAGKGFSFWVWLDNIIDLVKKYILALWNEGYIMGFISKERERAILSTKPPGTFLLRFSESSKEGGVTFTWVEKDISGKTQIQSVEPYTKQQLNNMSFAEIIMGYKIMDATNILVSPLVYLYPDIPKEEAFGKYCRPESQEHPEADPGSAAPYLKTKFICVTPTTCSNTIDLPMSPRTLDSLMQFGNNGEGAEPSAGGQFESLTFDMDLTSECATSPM
UniProt Q8CHI8: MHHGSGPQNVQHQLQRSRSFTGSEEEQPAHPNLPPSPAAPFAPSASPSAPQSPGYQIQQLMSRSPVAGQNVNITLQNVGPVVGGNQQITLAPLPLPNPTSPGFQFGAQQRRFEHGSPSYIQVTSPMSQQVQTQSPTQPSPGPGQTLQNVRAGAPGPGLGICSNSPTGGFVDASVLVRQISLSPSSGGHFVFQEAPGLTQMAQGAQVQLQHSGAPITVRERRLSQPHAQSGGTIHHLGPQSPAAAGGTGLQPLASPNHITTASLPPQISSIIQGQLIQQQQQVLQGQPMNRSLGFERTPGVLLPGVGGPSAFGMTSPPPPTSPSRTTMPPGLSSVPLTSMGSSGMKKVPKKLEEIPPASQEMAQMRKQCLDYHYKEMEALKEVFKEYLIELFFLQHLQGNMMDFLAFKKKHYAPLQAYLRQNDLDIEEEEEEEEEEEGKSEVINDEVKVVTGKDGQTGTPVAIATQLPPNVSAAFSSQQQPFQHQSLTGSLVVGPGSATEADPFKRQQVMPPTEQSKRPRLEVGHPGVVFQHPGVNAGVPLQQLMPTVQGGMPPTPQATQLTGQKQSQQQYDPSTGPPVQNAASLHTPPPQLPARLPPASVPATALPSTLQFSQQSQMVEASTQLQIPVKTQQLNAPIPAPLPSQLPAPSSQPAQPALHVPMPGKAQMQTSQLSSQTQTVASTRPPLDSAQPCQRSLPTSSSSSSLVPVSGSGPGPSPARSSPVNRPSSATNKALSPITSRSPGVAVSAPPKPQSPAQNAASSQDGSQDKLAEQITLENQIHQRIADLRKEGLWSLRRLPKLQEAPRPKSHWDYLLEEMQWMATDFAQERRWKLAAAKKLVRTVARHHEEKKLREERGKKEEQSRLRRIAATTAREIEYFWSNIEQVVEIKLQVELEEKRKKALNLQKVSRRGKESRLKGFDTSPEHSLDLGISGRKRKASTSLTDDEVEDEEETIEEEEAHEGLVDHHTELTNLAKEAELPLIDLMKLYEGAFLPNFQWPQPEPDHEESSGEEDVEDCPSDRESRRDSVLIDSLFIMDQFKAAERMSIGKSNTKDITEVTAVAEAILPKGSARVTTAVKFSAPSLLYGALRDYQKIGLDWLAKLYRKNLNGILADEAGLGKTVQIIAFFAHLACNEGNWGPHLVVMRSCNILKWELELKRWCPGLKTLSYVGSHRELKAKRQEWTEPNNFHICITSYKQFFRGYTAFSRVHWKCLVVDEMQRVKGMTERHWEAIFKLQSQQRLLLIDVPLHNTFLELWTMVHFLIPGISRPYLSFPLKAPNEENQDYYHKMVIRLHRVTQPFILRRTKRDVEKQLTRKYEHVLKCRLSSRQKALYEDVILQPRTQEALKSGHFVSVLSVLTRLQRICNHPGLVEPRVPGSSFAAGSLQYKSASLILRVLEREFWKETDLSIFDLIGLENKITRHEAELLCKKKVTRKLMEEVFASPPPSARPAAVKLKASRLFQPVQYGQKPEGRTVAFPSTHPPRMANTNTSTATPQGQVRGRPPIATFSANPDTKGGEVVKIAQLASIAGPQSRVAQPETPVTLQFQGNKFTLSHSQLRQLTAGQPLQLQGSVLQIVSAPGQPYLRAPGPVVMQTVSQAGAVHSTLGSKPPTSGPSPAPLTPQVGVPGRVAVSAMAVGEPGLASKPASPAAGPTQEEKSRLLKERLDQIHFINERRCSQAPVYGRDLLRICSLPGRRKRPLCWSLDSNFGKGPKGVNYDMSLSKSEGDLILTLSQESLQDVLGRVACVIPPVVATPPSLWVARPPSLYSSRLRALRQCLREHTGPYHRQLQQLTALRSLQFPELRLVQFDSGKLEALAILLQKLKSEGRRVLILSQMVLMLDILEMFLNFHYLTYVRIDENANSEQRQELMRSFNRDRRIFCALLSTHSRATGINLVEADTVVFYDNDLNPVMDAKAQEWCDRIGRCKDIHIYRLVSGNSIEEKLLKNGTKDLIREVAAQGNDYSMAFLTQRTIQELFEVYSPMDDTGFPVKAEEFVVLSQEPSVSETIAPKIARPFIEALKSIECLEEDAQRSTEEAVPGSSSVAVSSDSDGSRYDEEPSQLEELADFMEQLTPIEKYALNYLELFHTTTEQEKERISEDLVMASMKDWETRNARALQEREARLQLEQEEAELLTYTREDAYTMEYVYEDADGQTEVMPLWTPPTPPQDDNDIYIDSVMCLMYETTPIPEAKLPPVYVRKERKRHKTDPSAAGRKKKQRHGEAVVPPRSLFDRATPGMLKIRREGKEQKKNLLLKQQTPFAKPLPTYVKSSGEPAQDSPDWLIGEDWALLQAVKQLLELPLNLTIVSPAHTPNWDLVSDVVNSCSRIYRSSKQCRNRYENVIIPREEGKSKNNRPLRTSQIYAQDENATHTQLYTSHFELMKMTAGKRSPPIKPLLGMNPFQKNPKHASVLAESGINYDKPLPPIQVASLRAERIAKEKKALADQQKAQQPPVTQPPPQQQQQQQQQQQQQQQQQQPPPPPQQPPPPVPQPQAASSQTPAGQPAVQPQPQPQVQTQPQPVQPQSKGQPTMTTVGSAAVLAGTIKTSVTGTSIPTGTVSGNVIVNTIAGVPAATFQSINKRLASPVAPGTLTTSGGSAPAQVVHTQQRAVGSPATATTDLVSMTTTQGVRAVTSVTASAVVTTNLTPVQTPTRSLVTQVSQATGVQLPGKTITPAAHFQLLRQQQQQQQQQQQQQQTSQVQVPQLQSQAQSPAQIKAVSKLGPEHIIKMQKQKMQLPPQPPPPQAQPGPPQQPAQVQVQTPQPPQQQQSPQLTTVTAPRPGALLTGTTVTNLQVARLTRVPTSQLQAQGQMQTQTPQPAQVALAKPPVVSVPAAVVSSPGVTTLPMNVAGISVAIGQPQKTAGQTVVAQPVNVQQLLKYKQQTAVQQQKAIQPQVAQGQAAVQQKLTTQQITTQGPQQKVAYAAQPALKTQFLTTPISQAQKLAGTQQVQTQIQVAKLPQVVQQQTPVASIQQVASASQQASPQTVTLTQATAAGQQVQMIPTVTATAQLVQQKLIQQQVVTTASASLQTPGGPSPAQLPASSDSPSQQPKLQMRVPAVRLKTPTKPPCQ

Tests used:
[1] = target: T1, myc-tagged BirA* fusion of STAT1 (mouse) (UniProt P42225); test: proximity labelling; BioID in Raw 264.7 cells expressing doxycycline-induced myc-BirA* fusions, 50 µM biotin 18 h; resting cells and cells treated 2 h with IFN-β or IFN-γ (also 18 h IFN-β); streptavidin affinity purification, targeted LC-MS (PRM), normalised to myc-BirA* or NLS-BirA* control
T1 sequence: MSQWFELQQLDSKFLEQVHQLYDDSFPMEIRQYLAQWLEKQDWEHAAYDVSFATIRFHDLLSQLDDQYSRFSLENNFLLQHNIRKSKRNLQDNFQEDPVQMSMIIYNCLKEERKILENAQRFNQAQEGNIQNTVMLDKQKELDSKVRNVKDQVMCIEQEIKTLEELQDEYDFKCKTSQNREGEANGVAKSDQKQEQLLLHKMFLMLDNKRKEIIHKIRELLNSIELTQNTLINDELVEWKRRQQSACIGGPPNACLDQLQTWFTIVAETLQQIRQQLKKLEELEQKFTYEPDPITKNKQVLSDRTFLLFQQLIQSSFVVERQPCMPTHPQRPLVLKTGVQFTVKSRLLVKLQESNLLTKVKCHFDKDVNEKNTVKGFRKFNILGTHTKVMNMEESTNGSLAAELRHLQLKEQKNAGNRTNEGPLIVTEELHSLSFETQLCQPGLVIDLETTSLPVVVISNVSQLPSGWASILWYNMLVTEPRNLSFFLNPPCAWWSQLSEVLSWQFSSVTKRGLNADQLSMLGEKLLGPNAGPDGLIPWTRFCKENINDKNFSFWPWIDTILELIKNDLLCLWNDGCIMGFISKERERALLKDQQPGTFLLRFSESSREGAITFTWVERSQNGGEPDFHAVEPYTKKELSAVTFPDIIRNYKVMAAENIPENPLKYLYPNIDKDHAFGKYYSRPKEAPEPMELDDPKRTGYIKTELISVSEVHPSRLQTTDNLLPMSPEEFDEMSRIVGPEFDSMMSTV

[2] = target: myc-tagged BirA* fusion of STAT2 (mouse) (UniProt Q9WVL2); test: as above
[3] = target: T2, myc-tagged BirA* fusion of IRF9 (mouse) (UniProt Q61179); test: as above
T2 sequence: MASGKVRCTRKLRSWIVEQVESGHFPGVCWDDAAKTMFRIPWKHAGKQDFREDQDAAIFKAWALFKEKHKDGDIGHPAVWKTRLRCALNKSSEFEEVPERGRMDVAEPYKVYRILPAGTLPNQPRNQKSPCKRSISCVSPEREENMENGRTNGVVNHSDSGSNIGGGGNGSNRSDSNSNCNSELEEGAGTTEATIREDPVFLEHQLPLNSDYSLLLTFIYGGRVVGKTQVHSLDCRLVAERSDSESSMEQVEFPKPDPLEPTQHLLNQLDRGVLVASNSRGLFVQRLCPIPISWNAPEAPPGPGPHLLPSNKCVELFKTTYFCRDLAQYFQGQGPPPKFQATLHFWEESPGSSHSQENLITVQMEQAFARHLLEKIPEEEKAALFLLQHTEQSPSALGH

[4] = target: T2, myc-tagged BirA* fusion of IRF9 (mouse); test: proximity labelling; BioID interactome in Raw 264.7 cells expressing myc-BirA* fusions of STAT1, STAT2 or IRF9, resting or IFN-β (2, 18 h) or IFN-γ (2 h); streptavidin affinity purification, shotgun LC-MS, label-free quantification against myc-BirA* or BirA*-NLS controls
[5] = target: myc-tagged BirA* fusion of STAT2 (mouse) (UniProt Q9WVL2); test: proximity labelling; BioID in Raw 264.7 cells expressing doxycycline-induced myc-BirA* fusions, 50 µM biotin 18 h; resting cells and cells treated 2 h with IFN-β or IFN-γ (also 18 h IFN-β); streptavidin affinity purification, targeted LC-MS (PRM), normalised to myc-BirA* or NLS-BirA* control; remark: listed apart in the source

With “STAT3, endogenous (from UniProt P42227 1-770)” the binding [1] was “binds”, the binding [2] was “no binding” and the binding [3] was “no binding”.

In the case of “EP400, a subunit of the Tip60/NuA4 chromatin remodeling complex (from UniProt Q8CHI8 1-3072)”, the binding [4] is reported as “binds”.

B1: interferon regulatory factor 9 (IRF9), endogenous (protein, UniProt Q61179 1-399)
chain: MASGKVRCTRKLRSWIVEQVESGHFPGVCWDDAAKTMFRIPWKHAGKQDFREDQDAAIFKAWALFKEKHKDGDIGHPAVWKTRLRCALNKSSEFEEVPERGRMDVAEPYKVYRILPAGTLPNQPRNQKSPCKRSISCVSPEREENMENGRTNGVVNHSDSGSNIGGGGNGSNRSDSNSNCNSELEEGAGTTEATIREDPVFLEHQLPLNSDYSLLLTFIYGGRVVGKTQVHSLDCRLVAERSDSESSMEQVEFPKPDPLEPTQHLLNQLDRGVLVASNSRGLFVQRLCPIPISWNAPEAPPGPGPHLLPSNKCVELFKTTYFCRDLAQYFQGQGPPPKFQATLHFWEESPGSSHSQENLITVQMEQAFARHLLEKIPEEEKAALFLLQHTEQSPSALGH
With B1 the binding [5] was “binds”.
